From patent publication US20170096670

Legend:
[1] = target: T1, CD200R1 (on C57BL/6 splenocytes in allo-MLC) (Mus musculus) (UniProt Q9ES57); assay: activity in cells; settings: protein on the cell surface, single-stranded DNA
T1 sequence (looked up, limits assumed): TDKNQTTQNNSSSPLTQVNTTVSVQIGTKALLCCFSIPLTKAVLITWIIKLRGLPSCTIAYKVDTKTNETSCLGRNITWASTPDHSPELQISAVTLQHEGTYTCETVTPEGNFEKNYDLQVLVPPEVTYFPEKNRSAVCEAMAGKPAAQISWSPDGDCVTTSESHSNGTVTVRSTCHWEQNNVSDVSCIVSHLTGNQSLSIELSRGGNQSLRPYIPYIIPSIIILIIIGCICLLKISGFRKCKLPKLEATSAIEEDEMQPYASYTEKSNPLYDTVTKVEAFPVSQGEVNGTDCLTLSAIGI

[2] = target: T2, CD200R1 (full length, stably expressed in HEK-293) (Mus musculus) (UniProt Q9ES57); assay: activity in cells; settings: protein on the cell surface, single-stranded DNA
T2 sequence (looked up, limits assumed): T1 sequence (looked up, limits assumed)

[3] = target: T3, CD200R1 (on human cells in allo-MLC) (Homo sapiens) (UniProt Q8TD46); assay: activity in cells; settings: human allo-MLC, protein on the cell surface, single-stranded DNA
T3 sequence (looked up, limits assumed): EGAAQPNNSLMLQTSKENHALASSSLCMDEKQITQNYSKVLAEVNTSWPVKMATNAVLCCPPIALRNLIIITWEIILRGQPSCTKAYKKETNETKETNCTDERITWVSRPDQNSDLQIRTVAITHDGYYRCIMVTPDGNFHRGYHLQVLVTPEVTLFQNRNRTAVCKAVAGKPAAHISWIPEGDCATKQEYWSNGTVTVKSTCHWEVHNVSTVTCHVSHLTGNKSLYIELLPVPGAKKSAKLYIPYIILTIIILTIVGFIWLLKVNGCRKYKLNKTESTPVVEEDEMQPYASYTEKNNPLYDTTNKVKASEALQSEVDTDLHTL

[4] = target: T4, CD200R1 (recombinant) (Homo sapiens) (UniProt Q8TD46); assay: SELEX; settings: enriched in both murine and human CD200R1 pools at cycle 15; purified recombinant protein; single-stranded DNA
T4 sequence (looked up, limits assumed): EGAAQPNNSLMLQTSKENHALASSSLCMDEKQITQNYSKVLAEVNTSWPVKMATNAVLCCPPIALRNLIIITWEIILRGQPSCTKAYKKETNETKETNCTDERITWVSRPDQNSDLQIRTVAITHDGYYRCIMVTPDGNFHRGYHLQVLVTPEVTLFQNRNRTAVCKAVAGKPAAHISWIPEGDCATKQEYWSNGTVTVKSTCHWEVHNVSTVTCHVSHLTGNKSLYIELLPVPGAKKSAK

[5] = target: T5, CD200R1 (extracellular domain, recombinant) (Mus musculus) (UniProt Q9ES57); assay: SELEX; settings: purified recombinant protein, protein details: HIS-tag, immobilized on MagneHis Ni-Particles, single-stranded DNA
T5 sequence (looked up, limits assumed): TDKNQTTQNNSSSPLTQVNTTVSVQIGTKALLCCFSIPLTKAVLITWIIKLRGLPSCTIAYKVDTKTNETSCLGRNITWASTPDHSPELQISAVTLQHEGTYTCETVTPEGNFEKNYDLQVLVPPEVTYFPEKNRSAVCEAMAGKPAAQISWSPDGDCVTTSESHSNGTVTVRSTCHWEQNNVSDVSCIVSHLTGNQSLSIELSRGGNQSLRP

[6] = enriched in both murine and human CD200R1 pools at cycle 15
[7] = enriched after 15 rounds, PBS pH 7.4, 37 C

GACGATAGCGGTGACGGCACAGACGTCCCGCATCCTCCGCCGTGCCGACCCGTATGCCGCTTCCGTCCGTCGCTC [cApt]
functional effect of the aptamer ([1]; scrambled control in CTL induction assay, dose not given here): not active | functional effect of the aptamer ([2]; negative control in phosphorylation assay, 3 uM): not active

GACGATAGCGGTGACGGCACAGACGTCCCGCATCCTCCGCCGTGCCGACCCGTATGCCGCTTCCGTCCGTCGCTC [PEG-cApt]
functional effect of the aptamer ([1]; 5' amine C6 spacer 20 kDa PEG, mouse allo-MLC, no significant suppression, variant of cApt, dose not given here): not active | functional effect of the aptamer ([3]; 5' amine C6 spacer 20 kDa PEG, no significant suppression, variant of cApt, dose not given here): not active | functional effect of the aptamer ([2]; 5' amine C6 spacer 20 kDa PEG, no detectable CD200R1 phosphorylation, 2.5 uM, variant of cApt): not active

GACGATAGCGGTGACGGCACAGACGCACCGCTCTTATGCCACCATTTTCACGTATGCCGCTTCCGTCCGTCGCTC [PEG-CCS13]
functional effect of the aptamer ([1]; 5' amine C6 spacer 20 kDa PEG, mouse allo-MLC, 3 ug/mL, significant suppression of CTL induction, variant of CCS13): active | functional effect of the aptamer ([3]; 5' amine C6 spacer 20 kDa PEG, 3 ug/mL, significant suppression of CTL induction, variant of CCS13): active

GACGATAGCGGTGACGGCACAGACGGACGTGACATGCTTGACCAACTCGCCGTATGCCGCTTCCGTCCGTCGCTC [PEG-M49]
functional effect of the aptamer ([2]; 5' amine C6 spacer 20 kDa PEG, induces phosphorylation of CD200R1 cytoplasmic tail, 2.5 uM, 30 min, variant of M49): active

GACGATAGCGGTGACGGCACAGACGCCCCTCCGAGTGATATGTAATCCTACGTATGCCGCTTCCGTCCGTCGCTC [CCS8]
selection result [4]: selected | selection result [5, 6]: selected

GACGATAGCGGTGACGGCACAGACGCCCCTCCGAGTGATATGTAATCCTACGTATGCCGCTTCCGTCCGTCGCTC [PEG-CCS8]
functional effect of the aptamer ([1]; 5' 20 kDa PEG, mouse allo-MLC, activity retained after PEGylation, variant of CCS8, dose not given here): active | functional effect of the aptamer ([3]; 5' 20 kDa PEG, activity retained after PEGylation, variant of CCS8, dose not given here): active

GACGATAGCGGTGACGGCACAGACGGACGTGACATGCTTGACCAACTCGCCGTATGCCGCTTCCGTCCGTCGCTC [M49]
selection result [5, 7]: selected | functional effect of the aptamer ([2]; positive control for CD200R1 phosphorylation, 1.5 uM): active

GACGATAGCGGTGACGGCACAGACGTTTATTACCATTATGCCTATGTAACGTATGCCGCTTCCGTCCGTCGCTC [M52]
selection result [5, 7]: selected

CGGCACAGACGTTTATTACCATTATGCCTATGTAACGTATGCCG [TrM52 (M52-T1)]
functional effect of the aptamer ([1]; suppresses CTL induction equivalent to full length, variant of M52, dose not given here): active

GACGATAGCGGTGACGGCACAGACGCACCGCTCTTATGCCACCATTTTCACGTATGCCGCTTCCGTCCGTCGCTC [CCS13]
selection result [4]: selected | selection result [5, 6]: selected | functional effect of the aptamer ([2]; full length induces CD200R1 phosphorylation, 3 uM): active

GACGATAGCGGTGACGGCACAGACGTTTATTACCATTATGCCTATGTAACGTATGCCGCTTCCGTCCGTCGCTC [PEG-M52]
functional effect of the aptamer ([2]; 5' amine C6 spacer 20 kDa PEG, induces phosphorylation of CD200R1 cytoplasmic tail, 2.5 uM, 30 min, variant of M52): active

For some assays here: No signal at the amounts used counts as a negative. Protein sequences can lack the tags named with them. For some assays here: The exact form of at least one protein or probe is not confirmed.
